PubChem BioAssay AID1259424 – University of Nebraska Medical Center – 2018

Aim: 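Rank knockdowns across the genome by resemblance to the KSR1 depletion profile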 (primary screen)
Cells: human HCT116 colon cancer cells
Reagent: siRNA pool against human genes, 50 nM
Measured: 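Log2 levels of six mRNAs (branched-DNA multiplex), adjusted by two reference genes and the non-targeting median, then scored against the average KSR1 knockdown pattern as Pearson r and euclidean distance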
Scale: mean correlation with KSR1 profile and KSR1 correlation: higher = expression change more like KSR1 knockdown; mean distance from KSR1 profile: higher = expression change less like KSR1 knockdown
Here is a random part of about 14,000 reagents. 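Higher correlation or smaller distance means closer resemblance to KSR1 loss; control wells, including KSR1 knockdowns, recur on many plates.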 A reagent listed more than once was tested more than once; the source does not tell the runs apart. The record does not give: the time to read-out.

| Gene | PubChem SID | mean correlation with KSR1 profile | mean distance from KSR1 profile | KSR1 correlation, replicate 1 | KSR1 correlation, replicate 2 | KSR1 correlation, replicate 3 |
| --- | --- | --- | --- | --- | --- | --- |
| LMLN | SID364004287 | -0.128 | 2.13 | -0.294 | 0.009 | -0.209 |
| SRGAP2 | SID364005248 | -0.105 | 1.66 | 0.0245 | -0.336 | -0.0365 |
| IL1RAPL2 | SID364000297 | 0.314 | 1.09 | 0.167 | 0.403 | 0.261 |
| PRPF31 | SID363999610 | 0.522 | 2.5 | 0.491 | 0.233 | 0.588 |
| PADI2 | SID363998007 | -0.421 | 2.44 | -0.226 | -0.598 | -0.329 |
| ANAPC15 | SID363998568 | -0.252 | 1.92 | -0.255 | -0.394 | -0.0737 |
| ZMIZ2 | SID364003632 | 0.397 | 1.89 | 0.275 | 0.375 | 0.343 |
| ZNF180 | SID363998380 | 0.156 | 2.32 | 0.259 | 0.208 | 0.0554 |
| PCDHGB7 | SID364001254 | -0.22 | 2.33 | -0.326 | -0.346 | -0.234 |
| RNF26 | SID364003736 | -0.515 | 2.27 | -0.6 | -0.572 | -0.483 |
| TK1 | SID363994379 | 0.272 | 2.41 | 0.398 | 0.417 | -0.105 |
| SLC67A1-AS | SID363997821 | -0.111 | 2.62 | 0.195 | -0.158 | -0.223 |
| RAB14 | SID364000032 | -0.236 | 1.83 | -0.514 | -0.0484 | 0.0834 |
| RGS3 | SID364000530 | 0.342 | 3.11 | 0.315 | 0.517 | 0.448 |
| ZNF248 | SID364001972 | -0.616 | 1.88 | -0.493 | -0.278 | -0.492 |
| PPARGC1A | SID363998385 | -0.0162 | 2.85 | 0.226 | 0.233 | 0.162 |
| PYY2 | SID364002003 | 0.25 | 2.72 | 0.166 | 0.183 | 0.406 |
| SCGB1A1 | SID363994469 | -0.0782 | 1.93 | -0.0437 | 0.0198 | -0.153 |
| HAP1 | SID363995004 | 0.392 | 1.23 | 0.61 | 0.0885 | 0.421 |
| ASIC4 | SID364001172 | 0.0793 | 3.34 | 0.305 | 0.177 | 0.012 |
| IFT74 | SID364003249 | 0.217 | 2.83 | 0.19 | 0.114 | 0.189 |
| ZDHHC8 | SID363998480 | 0.796 | 2.32 | 0.826 | 0.694 | 0.58 |
| SLC9A6 | SID363997175 | 0.27 | 2.06 | 0.318 | 0.17 | 0.298 |
| GPRIN2 | SID363999039 | 0.389 | 1.28 | 0.35 | 0.53 | 0.242 |
| PRG2 | SID363993886 | -0.431 | 1.62 | 0.0703 | -0.0481 | -0.409 |
| KAT14 | SID364001731 | -0.102 | 3.14 | -0.121 | -0.0717 | -0.0969 |
| TNNI3K | SID363999767 | -0.0695 | 1.98 | -0.478 | -0.183 | 0.0492 |
| MAML2 | SID364003976 | 0.0156 | 1.62 | -0.352 | 0.0613 | 0.389 |
| OGT | SID364004939 | -0.117 | 2.23 | -0.157 | -0.0242 | -0.246 |
| JPT1 | SID363999934 | -0.284 | 1.18 | -0.87 | 0.316 | 0.0733 |
| JPT1 | SID363999934 | -0.344 | 1.32 | -0.478 | -0.369 | 0.0659 |
| USH2A | SID363997837 | 0.0779 | 1.35 | 0.306 | -0.265 | 0.0885 |
| GALNT8 | SID364000298 | -0.17 | 3.6 | -0.0388 | -0.0969 | -0.259 |
| ZC3H4 | SID364005037 | -0.118 | 2.72 | -0.192 | -0.0404 | -0.0889 |
